Measured values taken from publication PMC10163288.
This is one part of the list.

B1: il2ra_site1_3nfp_sap_11_mot_01923d483164837742cf829bee572cc5_0001_af2_000000153_0001_17_30_H_._HHH_b1_07621_0001_0000200007_0000001_0_0001_af2pred_0001_af2pred_ … (protein)
chain: SSSSSDEEEYVEQVLKQAENLERRGNPEAARRYLRSLLRALEALNSPLYEEVERLLEEIEESSSS
B2: il2ra_site2_3nfp_normal_mot_HHH_b1_05536_000000266_0001_21_37_H_._HHH_b2_03404_0001_0001900118_0000001_0_af2pred_0001_1_af2pred_swapped (protein)
chain: SSSSSEEEEFRFAVLVAELLAEELGDPEALERLEELREEYEEEGDPRIFEEISKIAQELLDSSSS
B3: il2ra_site1_3nfp_sap_12_mot_44cd6c0e0f7a4ff4e9b806e9964b2fdf_0001_af2_000000029_0001_35_49_H_._2f079a3b57af2c20eddd8b670d0b743d_0001_1_0001_0000800008_0000001_0 … (protein)
chain: SSSSSESRLREVRELLKRAEEALEEGDPELVRELLEEAQRVAEEGNNPSLRRFVELAIKQVSSSS
B4: il2ra_site1_3nfp_sap_6_mot_HHH_b1_03236_000000173_0001_17_33_H_._HHH_b1_02291_0001_0000100005_0000001_0_0001 (protein)
chain: DDEESIERAIERAAKLAGVPGVEVEVSNNKIHVEFEGNNEQARAASKIVEEMARAINLEIEVRFE
B5: il2ra_site2_3nfp_sap_30_mot_HHH_b1_04805_af2_000000202_0001_1_19_H_._ems_3hC_59_0002_0001_0001100056_0000001_0_0001 (protein)
chain: SSSSSDVAEQSLRLAALRAKREGNEEALEVVEEAIEAYEKGLADDLEIYELLYEAYELLKSSSSS
B6: il2ra_site2_3nfp_normal_mot_HHH_b2_04451_000000238_0001_21_37_H_._HHH_b1_00928_0001_0000200003_0000001_0 (protein)
chain: SSSSDEEEERVREEIERLLKEGDKYEALQLLAELTEEALRNNDEELDRLLLRLFELAQELSSSSS
B7: il2ra_site2_2erj_normal_mot_HHH_b1_00261_000000083_0001_43_58_H_._HHH_b1_03106_0001_0000200009_0000001_0 (protein)
chain: SSSSNERIEKVSELAIELLELFERGDPEEARRLAEEIVEELEELGDPESARYIEYILRIISSSSS
B8: il2ra_site1_2b5i_normal_mot_067def8349c108d94f0197242f5284c2_0001_1_000000273_0001_35_49_H_._4768f0874ff0c59541f1d07f557e6cb6_0001_0001_0000200012_0000001_0_af2 … (protein)
chain: DLAALEALAAAIAETLDNPEAEKAISKLLFRVRAGDEEARRELLELYALAQADPEAALERARKLL
B9: il2ra_site1_2b5i_normal_mot_HHH_b2_04910_000000118_0001_1_19_H_._HHH_b1_00719_af2_0001_0000100004_0000001_0_af2pred_dldesign_0_af2pred (protein)
chain: SSSSSPEVKKAIELFLEANELFQAGKPEEAKKKLEEALKLAKKGKASSLVKMIENALSLISSSSS
B10: il2ra_site2_2erj_sap_18_mot_HHH_b1_00071_af2_000000225_0001_40_56_H_._HHH_b2_01084_0002_0000200007_0000001_0_0001_af2pred_0001_af2pred (protein)
chain: SSSSSDEEETRERVEELLEEAKELPDLREALRLAQEAAELAAKYDDPELLRLVDEVAKKLSSSSS
B11: il2ra_site1_3nfp_normal_mot_HHH_b2_02135_000000263_0001_1_18_H_._HHH_b1_04956_0001_0000100008_0000001_0_af2pred_0001_af2pred_swapped (protein)
chain: SSSSDVSREAQRLAKRISKLIKEGDHEEARELLEELEELARETGSPVAELYVKRLERHIDSSSSS
B12: il2ra_site1_3nfp_normal_mot_HHH_b1_01231_af2_000000170_0001_1_16_H_._HHH_b1_08672_af2_0001_0001700032_0000001_0_af2pred_0001_af2pred_1 (protein)
chain: SSSSDEKKEEALRIAELLLELARRGDREELEELLEKLRELAEELNDPWLERLLRQVERLLSSSSS
B13: il2ra_site1_2b5i_normal_mot_HHH_b1_07881_af2_000000049_0001_1_19_H_._HHH_b1_04949_af2_0001_0000100006_0000001_1 (protein)
chain: SSSSSDEEVEELFHEASELLRRGDPEEAKEVLKEALELAEELGSENEARDIRFFLEQIKLSSSSS
B14: il2ra_site1_2b5i_normal_mot_HHH_b1_01949_af2_000000041_0001_1_19_H_._HHH_b1_05336_af2_0001_0000400018_0000001_0_af2pred_0001_af2pred (protein)
chain: SSSSSEEEQVTELFREASELFRNGNPEEARKVLEEALELARETGDPVAEEDLERLLEMLNSSSSS
B15: il2ra_site1_1z92_sap_22_mot_HHH_b1_07526_000000113_0001_40_57_H_._HHH_b1_06078_af2_0001_0000100008_0000001_0_0001_af2pred_0001_af2pred (protein)
chain: SDIEEILKEAVEKNDEELLERFIKQLLRDTGDPERVEQLLRILVRRLGLPPEVLEELRRLLEELT
B16: il2ra_site1_2b5i_normal_mot_22370d59370c406a0c205a431f537cfa_0001_af2_000000141_0001_1_31_H_._HHH_b2_05265_0001_0000100002_0000001_0 (protein)
chain: SSSSDHELTRFAVRVVWRLAARLGLSNEQRQLLNRLAVELVNRGLSPEEIEEELEKLAEELSSSS
B17: il2ra_site1_2b5i_sap_12_mot_HHH_b2_07873_af2_000000005_0001_23_39_H_._HHH_b2_08174_0001_0000100009_0000001_0_0001_af2pred_dldesign_0_af2pred (protein)
chain: SSSSSEKEDELYDLFQKALEAYRAGKYEEARKLLEEAIKLALELGSTGQAAQLQRLLERLSSSSS
B18: il2ra_site2_3nfp_normal_mot_HHH_b2_08245_af2_000000201_0001_41_55_H_._HHH_b2_03234_af2_0001_0000100013_0000001_1_af2pred_0001_af2pred (protein)
chain: SSSSDEEEEAEEEVREALKRGDDERAKRVVEELALEAAEKNDFELYAAANRLLELILKLEHSSSS
B19: il2ra_site1_1z92_sap_12_mot_7d8a99fbd7d2e4cf462d32eb85bd8b9f_0001_000000000_0001_1_12_H_._753cdabf4d6139bcd7e966370e577bbb_0001_0001_0000200021_0000001_0_0001_a … (protein)
chain: SSSSSDKEEFVEEVVEELVREFGLDEEARELLERAAKHSIENGFSEKSIRRILEFQAKLLSSSSS

These binders were tested against il2ra, P01589 (assay: yeast display titration).

Apparent Kd, inactive:
B1 no binding seen, B2 no binding seen, B3 no binding seen, B4 no binding seen, B5 no binding seen, B6 no binding seen, B7 no binding seen, B8 no binding seen, B9 no binding seen, B10 no binding seen, B11 no binding seen, B12 no binding seen, B13 no binding seen, B14 no binding seen, B15 no binding seen, B16 no binding seen, B17 no binding seen, B18 no binding seen, B19 no binding seen
